According to the supplement of paper PMC6411743:
± gives the standard deviation of the averaged measurements. The entries are a selection whose mix differs from that of the whole data set.

Amino acid sequences for entries named in this document (tags omitted). A change or cut given only in a name is not applied to a line headed by its entry.
UniProt Q13200: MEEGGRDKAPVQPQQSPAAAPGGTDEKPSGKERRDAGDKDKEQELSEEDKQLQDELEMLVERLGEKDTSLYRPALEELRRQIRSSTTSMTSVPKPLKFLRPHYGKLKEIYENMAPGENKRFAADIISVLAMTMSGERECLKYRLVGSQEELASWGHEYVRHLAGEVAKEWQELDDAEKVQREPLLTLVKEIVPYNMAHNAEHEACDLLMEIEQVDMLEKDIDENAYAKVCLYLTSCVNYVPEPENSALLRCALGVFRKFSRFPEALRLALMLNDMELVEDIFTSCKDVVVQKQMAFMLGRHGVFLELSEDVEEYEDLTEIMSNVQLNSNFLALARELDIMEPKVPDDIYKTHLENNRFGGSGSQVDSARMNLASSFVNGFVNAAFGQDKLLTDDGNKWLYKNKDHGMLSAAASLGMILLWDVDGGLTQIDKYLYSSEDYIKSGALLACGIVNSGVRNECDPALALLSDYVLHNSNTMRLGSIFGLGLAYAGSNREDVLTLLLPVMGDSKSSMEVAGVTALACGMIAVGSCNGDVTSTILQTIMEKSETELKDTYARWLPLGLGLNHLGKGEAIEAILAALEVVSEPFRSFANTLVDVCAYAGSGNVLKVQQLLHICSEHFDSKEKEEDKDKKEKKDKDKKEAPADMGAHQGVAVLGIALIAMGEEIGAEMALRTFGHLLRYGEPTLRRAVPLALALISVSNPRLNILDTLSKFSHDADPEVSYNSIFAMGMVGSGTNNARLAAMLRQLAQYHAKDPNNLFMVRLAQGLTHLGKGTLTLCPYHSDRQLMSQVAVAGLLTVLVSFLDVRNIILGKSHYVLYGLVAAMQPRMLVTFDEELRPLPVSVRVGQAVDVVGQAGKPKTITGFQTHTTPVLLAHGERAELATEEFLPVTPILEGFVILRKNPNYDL
UniProt Q04727: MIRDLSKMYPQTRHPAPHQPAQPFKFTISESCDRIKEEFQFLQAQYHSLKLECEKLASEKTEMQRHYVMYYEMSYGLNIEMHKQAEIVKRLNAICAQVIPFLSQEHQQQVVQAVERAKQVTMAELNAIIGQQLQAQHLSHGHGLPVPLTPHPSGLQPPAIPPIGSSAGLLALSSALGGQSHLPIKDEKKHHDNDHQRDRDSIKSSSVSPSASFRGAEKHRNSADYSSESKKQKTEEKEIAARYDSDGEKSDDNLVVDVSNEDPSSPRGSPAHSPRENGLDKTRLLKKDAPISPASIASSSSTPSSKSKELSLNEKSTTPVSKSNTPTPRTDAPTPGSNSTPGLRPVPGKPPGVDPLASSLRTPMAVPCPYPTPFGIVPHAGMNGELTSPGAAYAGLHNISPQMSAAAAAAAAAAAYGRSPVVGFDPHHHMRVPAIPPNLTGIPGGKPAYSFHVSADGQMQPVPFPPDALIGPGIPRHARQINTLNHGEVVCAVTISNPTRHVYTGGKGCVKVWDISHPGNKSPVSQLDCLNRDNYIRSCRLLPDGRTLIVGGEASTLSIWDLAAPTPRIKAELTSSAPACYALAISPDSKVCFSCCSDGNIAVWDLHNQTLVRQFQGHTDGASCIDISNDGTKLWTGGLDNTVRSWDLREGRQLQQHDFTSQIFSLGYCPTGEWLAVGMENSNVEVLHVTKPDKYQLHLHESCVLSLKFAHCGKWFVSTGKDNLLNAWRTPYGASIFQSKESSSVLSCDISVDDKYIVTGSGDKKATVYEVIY
UniProt Q13310, whole entry: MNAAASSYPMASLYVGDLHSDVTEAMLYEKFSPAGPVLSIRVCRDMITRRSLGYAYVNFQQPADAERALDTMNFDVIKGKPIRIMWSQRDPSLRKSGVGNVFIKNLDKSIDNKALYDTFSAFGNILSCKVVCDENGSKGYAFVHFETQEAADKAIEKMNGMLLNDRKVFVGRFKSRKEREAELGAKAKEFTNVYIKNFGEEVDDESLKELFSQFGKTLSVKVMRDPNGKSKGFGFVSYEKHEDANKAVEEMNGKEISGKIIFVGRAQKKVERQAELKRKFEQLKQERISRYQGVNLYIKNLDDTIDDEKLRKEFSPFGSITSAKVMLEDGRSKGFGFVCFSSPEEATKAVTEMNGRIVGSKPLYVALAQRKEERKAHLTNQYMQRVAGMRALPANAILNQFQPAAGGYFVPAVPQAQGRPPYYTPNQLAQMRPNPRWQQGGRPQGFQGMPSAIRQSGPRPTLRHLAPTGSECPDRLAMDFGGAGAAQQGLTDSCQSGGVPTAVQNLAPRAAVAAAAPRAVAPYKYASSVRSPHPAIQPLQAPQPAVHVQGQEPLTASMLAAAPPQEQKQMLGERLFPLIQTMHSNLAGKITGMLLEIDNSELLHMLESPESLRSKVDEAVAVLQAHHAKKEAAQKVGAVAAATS
UniProt Q13905: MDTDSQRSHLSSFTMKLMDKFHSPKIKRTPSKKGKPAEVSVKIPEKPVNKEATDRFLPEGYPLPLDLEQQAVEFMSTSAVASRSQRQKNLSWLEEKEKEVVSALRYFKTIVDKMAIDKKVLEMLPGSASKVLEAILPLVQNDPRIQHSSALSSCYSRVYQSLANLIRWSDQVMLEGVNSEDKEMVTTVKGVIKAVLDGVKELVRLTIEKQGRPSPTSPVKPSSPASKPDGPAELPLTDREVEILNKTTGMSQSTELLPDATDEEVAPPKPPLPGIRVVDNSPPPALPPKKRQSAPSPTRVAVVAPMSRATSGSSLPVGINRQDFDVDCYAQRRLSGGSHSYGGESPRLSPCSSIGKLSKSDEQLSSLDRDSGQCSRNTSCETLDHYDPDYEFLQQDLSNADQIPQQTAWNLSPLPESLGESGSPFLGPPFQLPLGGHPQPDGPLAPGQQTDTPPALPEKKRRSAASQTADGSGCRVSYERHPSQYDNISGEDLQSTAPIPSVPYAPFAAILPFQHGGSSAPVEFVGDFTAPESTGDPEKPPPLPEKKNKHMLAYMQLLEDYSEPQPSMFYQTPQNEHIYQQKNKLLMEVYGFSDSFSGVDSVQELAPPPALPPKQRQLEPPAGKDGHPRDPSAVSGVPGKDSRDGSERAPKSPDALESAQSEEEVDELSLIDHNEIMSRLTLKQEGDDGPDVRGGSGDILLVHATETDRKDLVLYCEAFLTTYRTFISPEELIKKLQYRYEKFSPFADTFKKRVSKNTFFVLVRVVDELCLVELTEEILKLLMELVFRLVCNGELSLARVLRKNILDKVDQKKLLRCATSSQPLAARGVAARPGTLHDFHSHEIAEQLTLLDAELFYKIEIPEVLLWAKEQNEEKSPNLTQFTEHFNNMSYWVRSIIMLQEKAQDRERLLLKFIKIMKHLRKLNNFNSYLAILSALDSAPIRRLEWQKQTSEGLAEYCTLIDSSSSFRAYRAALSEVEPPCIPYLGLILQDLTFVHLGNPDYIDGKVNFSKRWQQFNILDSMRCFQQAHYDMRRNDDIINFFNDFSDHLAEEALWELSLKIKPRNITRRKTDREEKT
UniProt Q02535: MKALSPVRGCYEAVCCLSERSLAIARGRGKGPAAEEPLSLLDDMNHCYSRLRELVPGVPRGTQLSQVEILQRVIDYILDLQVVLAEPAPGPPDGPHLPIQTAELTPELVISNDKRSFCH
UniProt Q12797: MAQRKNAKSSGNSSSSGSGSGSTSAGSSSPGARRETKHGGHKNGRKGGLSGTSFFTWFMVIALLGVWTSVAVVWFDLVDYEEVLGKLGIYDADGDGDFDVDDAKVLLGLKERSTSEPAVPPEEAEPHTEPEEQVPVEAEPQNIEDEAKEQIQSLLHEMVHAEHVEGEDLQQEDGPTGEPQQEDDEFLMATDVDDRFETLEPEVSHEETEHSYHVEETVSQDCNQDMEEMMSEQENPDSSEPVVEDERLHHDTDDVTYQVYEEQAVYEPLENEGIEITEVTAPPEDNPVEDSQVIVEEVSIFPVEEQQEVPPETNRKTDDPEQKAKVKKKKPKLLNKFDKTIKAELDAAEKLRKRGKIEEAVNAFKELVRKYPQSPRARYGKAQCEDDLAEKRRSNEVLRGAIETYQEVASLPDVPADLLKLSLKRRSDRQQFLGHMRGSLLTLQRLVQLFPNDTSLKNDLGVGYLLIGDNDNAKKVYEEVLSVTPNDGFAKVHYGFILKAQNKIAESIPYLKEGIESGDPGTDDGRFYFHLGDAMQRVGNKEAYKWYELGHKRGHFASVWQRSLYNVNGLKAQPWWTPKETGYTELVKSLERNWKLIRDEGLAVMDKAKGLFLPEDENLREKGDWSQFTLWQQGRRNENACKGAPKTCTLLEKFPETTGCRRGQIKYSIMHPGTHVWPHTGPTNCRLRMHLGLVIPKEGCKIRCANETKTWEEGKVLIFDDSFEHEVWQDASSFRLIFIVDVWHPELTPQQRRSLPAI
UniProt Q13185: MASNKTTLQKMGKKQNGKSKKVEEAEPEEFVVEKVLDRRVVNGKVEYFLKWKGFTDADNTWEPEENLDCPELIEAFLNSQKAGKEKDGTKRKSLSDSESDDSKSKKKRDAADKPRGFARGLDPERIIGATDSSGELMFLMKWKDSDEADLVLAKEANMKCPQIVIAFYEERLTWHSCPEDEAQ
UniProt Q08380: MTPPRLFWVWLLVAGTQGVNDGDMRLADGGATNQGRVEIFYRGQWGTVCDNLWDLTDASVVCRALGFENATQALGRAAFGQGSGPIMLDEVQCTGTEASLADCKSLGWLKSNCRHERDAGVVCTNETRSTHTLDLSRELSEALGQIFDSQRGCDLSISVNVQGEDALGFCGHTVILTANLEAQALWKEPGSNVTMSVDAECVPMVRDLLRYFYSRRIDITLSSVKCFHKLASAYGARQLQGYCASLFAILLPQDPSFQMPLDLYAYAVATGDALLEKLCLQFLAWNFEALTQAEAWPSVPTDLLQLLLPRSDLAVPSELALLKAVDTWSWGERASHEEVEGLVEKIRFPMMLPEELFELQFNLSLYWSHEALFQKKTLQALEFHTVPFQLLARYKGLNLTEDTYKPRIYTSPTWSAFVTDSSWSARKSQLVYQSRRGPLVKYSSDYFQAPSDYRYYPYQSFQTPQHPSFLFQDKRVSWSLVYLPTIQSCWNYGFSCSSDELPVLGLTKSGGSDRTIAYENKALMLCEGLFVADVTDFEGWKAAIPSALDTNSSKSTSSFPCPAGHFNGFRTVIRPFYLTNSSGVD
UniProt Q0VD83: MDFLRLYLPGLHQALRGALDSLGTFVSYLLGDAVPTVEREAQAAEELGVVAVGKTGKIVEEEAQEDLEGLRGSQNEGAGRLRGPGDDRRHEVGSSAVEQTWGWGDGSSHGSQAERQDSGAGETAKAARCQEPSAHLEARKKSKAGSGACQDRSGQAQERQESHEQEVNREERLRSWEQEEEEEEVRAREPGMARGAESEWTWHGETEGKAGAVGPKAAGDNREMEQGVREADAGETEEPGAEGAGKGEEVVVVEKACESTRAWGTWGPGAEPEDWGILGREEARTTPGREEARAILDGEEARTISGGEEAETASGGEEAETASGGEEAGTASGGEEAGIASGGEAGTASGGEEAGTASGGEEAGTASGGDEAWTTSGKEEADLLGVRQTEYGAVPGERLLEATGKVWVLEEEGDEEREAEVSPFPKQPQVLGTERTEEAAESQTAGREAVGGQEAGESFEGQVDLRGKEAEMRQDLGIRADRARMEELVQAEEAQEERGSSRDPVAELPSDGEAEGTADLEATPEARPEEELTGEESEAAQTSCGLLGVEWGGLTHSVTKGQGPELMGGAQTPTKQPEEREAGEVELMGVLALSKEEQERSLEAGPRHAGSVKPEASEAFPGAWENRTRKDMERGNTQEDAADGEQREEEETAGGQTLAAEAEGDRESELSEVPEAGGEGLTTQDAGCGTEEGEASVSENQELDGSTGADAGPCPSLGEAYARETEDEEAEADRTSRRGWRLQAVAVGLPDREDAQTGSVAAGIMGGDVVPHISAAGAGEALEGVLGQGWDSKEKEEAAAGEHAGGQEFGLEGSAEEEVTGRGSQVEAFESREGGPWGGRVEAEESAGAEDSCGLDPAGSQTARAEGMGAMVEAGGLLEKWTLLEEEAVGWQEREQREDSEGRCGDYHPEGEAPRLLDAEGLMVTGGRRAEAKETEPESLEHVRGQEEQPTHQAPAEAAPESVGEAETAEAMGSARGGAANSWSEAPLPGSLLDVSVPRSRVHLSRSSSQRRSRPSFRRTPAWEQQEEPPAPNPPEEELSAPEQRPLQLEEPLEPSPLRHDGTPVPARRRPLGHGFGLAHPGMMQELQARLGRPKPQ
UniProt Q08257: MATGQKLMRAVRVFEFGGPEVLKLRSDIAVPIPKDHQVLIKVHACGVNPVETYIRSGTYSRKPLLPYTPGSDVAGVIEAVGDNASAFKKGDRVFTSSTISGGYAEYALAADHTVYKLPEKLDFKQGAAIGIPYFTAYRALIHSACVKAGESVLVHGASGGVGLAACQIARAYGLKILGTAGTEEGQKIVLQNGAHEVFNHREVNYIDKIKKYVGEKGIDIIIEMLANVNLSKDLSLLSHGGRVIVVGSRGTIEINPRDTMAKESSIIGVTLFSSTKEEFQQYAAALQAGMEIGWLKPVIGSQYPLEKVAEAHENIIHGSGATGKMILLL

Compound: Nc1ncnc2c1ncn2[C@@H]1O[C@H](COP(=O)(O)OP(=O)(O)OP(=O)(O)O)[C@@H](O)[C@H]1O [adenosine triphosphate]
Experiment: NP40-soluble protein abundance relative to vehicle (solubility fold change) (ratio); higher = more soluble protein in presence of ATP
Method in brief: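 In three independent experiments, Jurkat crude lysate made by Dounce homogenisation was treated for 10 min at room temperature and then 3 min at 37 °C with eight concentrations ranging from 0.1 to 10 mM. It was then solubilised with 0.8% NP40 plus benzonase for 60 min at 4 °C and ultracentrifuged. The supernatant was TMT-labelled for LC-MS/MS, and each value is the fold change against the detergent-processed vehicle for the same replicate, using vsn-normalised intensities.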

| Target | NP40-soluble protein abundance (concentration: 1mM) | NP40-soluble protein abundance (concentration: 2mM) | NP40-soluble protein abundance (concentration: 4mM) | NP40-soluble protein abundance (concentration: 6mM) | NP40-soluble protein abundance (concentration: 8mM) | NP40-soluble protein abundance (concentration: 10mM) |
| --- | --- | --- | --- | --- | --- | --- |
| CENPE (UniProt Q02224) | 0.939 ± 0.044 | 0.907 ± 0.012 | 0.909 ± 0.032 | 0.936 ± 0.058 | 0.922 ± 0.048 | 0.884 ± 0.016 |
| RPL6 (UniProt Q02878) | 1.04 ± 0.051 | 0.96 ± 0.12 | 0.948 ± 0.11 | 0.868 ± 0.095 | 0.703 ± 0.086 | 0.913 ± 0.1 |
| PAK2 (UniProt Q13177) | 0.959 ± 0.022 | 0.946 ± 0.022 | 0.904 ± 0.03 | 0.965 ± 0.036 | 0.912 ± 0.036 | 0.907 ± 0.026 |
| USP4 (UniProt Q13107) | 1 ± 0.022 | 1.02 ± 0.035 | 1 ± 0.074 | 0.968 ± 0.021 | 0.984 ± 0.02 | 0.989 ± 0.025 |
| PSMD2 (UniProt Q13200) | 0.949 ± 0.076 | 0.891 ± 0.05 | 0.854 ± 0.028 | 0.834 ± 0.03 | 0.898 ± 0.029 | 0.886 ± 0.064 |
| UniProt Q02750 | 0.949 ± 0.018 | 0.984 ± 0.042 | 0.951 ± 0.028 | 0.956 ± 0.034 | 0.926 ± 0.021 | 0.951 ± 0.043 |
| SP4 (UniProt Q02446) | 0.936 ± 0.039 | 0.942 ± 0.059 | 0.955 ± 0.019 | 0.96 ± 0.099 | 0.909 ± 0.037 | 0.961 ± 0.06 |
| TFAP4 (UniProt Q01664) | 1.01 ± 0.079 | 0.966 ± 0.074 | 0.931 ± 0.049 | 0.937 ± 0.059 | 0.927 ± 0.066 | 0.84 ± 0.091 |
| BLMH (UniProt Q13867) | 1 ± 0.1 | 0.973 ± 0.086 | 0.942 ± 0.09 | 0.9 ± 0.12 | 0.996 ± 0.046 | 0.95 ± 0.062 |
| UniProt Q01085 and related entries | 0.974 ± 0.031 | 0.984 ± 0.043 | 0.97 ± 0.054 | 0.968 ± 0.054 | 1.02 ± 0.082 | 0.957 ± 0.067 |
| UniProt Q04727 and related entries | 0.937 ± 0.033 | 0.909 ± 0.025 | 0.808 ± 0.13 | 0.877 ± 0.043 | 0.796 ± 0.13 | 0.778 ± 0.12 |
| UniProt Q13310 and related entries | 0.973 ± 0.031 | 0.969 ± 0.032 | 0.951 ± 0.054 | 1.02 ± 0.076 | 0.989 ± 0.049 | 1 ± 0.063 |
| UniProt Q13615 and related entries | 0.994 ± 0.08 | 1.01 ± 0.087 | 0.994 ± 0.025 | 1.03 ± 0.029 | 0.975 ± 0.034 | 0.977 ± 0.052 |
| COTL1 (UniProt Q14019) | 0.882 ± 0.014 | 0.908 ± 0.058 | 0.8537 ± 0.0072 | 0.888 ± 0.058 | 0.863 ± 0.022 | 0.863 ± 0.038 |
| ALDH6A1 (UniProt Q02252) | 0.988 ± 0.04 | 0.979 ± 0.034 | 0.958 ± 0.029 | 0.968 ± 0.041 | 0.959 ± 0.023 | 0.964 ± 0.029 |
| XRCC4 (UniProt Q13426) | 1.15 ± 0.19 | 1.02 ± 0.076 | 1.06 ± 0.093 | 1.13 ± 0.1 | 1.1 ± 0.071 | 1.13 ± 0.08 |
| CEBPZ (UniProt Q03701) | 1.04 ± 0.028 | 1.05 ± 0.056 | 1.14 ± 0.015 | 1.21 ± 0.016 | 1.21 ± 0.013 | 1.32 ± 0.024 |

| Target | NP40-soluble protein abundance (concentration: 1mM) | NP40-soluble protein abundance (concentration: 2mM) | NP40-soluble protein abundance (concentration: 4mM) | NP40-soluble protein abundance (concentration: 6mM) | NP40-soluble protein abundance (concentration: 8mM) | NP40-soluble protein abundance (concentration: 10mM) |
| --- | --- | --- | --- | --- | --- | --- |
| UniProt Q13905 and related entries | 0.971 ± 0.033 | 0.975 ± 0.022 | 0.98 ± 0.037 | 0.967 ± 0.062 | 0.955 ± 0.023 | 0.946 ± 0.019 |
| PRKCQ (UniProt Q04759) | 1.04 ± 0.086 | 1.04 ± 0.092 | 1.02 ± 0.059 | 0.969 ± 0.1 | 1.05 ± 0.059 | 1.02 ± 0.05 |
| MRPL49 (UniProt Q13405) | 1.02 ± 0.11 | 0.942 ± 0.15 | 0.915 ± 0.1 | 0.947 ± 0.27 | 0.944 ± 0.21 | 0.882 ± 0.17 |
| UniProt Q13561 and related entries | 0.966 ± 0.058 | 0.934 ± 0.048 | 0.927 ± 0.06 | 0.968 ± 0.15 | 0.938 ± 0.068 | 0.873 ± 0.045 |
| UniProt Q02535 | 0.933 ± 0.068 | 0.998 ± 0.034 | 0.918 ± 0.072 | 0.943 ± 0.065 | 0.918 ± 0.035 | 0.925 ± 0.015 |
| UniProt Q12797 and related entries | 1 ± 0.081 | 1.01 ± 0.094 | 1.04 ± 0.1 | 1.05 ± 0.11 | 1.02 ± 0.086 | 1.04 ± 0.085 |
| MLLT1 (UniProt Q03111) | 0.993 ± 0.073 | 1.02 ± 0.065 | 0.999 ± 0.064 | 1.04 ± 0.02 | 0.995 ± 0.054 | 1.01 ± 0.045 |
| PIN1 (UniProt Q13526) | 0.9 ± 0.062 | 0.968 ± 0.026 | 0.939 ± 0.012 | 0.943 ± 0.021 | 0.925 ± 0.036 | 0.936 ± 0.025 |
| CBX3 (UniProt Q13185) | 0.916 ± 0.04 | 0.913 ± 0.028 | 0.856 ± 0.023 | 0.941 ± 0.041 | 0.9 ± 0.011 | 0.901 ± 0.045 |
| LGALS3BP (UniProt Q08380) | 1.02 ± 0.092 | 0.964 ± 0.063 | 0.963 ± 0.12 | 0.956 ± 0.16 | 0.965 ± 0.12 | 0.944 ± 0.087 |
| UniProt Q0VD83 and related entries | 0.998 ± 0.053 | 1.05 ± 0.11 | 1.03 ± 0.089 | 1.012 ± 0.0083 | 0.972 ± 0.057 | 0.982 ± 0.046 |
| CKAP4 (UniProt Q07065) | 1.05 ± 0.054 | 1.03 ± 0.028 | 1.1 ± 0.045 | 1.17 ± 0.075 | 1.09 ± 0.021 | 1.06 ± 0.029 |
| CRYZ (UniProt Q08257) | 0.979 ± 0.085 | 0.988 ± 0.092 | 0.94 ± 0.068 | 0.926 ± 0.12 | 0.95 ± 0.054 | 0.979 ± 0.074 |
| PAK1 (UniProt Q13153) | 0.964 ± 0.029 | 0.958 ± 0.023 | 0.938 ± 0.008 | 0.987 ± 0.013 | 0.948 ± 0.017 | 0.93 ± 0.038 |
| MTM1 (UniProt Q13496) | 1.07 ± 0.08 | 1.06 ± 0.066 | 1.06 ± 0.072 | 1 ± 0.092 | 1.07 ± 0.093 | 1.01 ± 0.057 |
| UniProt Q14139 and related entries | 0.984 ± 0.079 | 0.993 ± 0.075 | 0.975 ± 0.043 | 0.93 ± 0.1 | 0.958 ± 0.012 | 0.967 ± 0.039 |
| UniProt Q02410 and related entries | 0.89 ± 0.26 | 0.982 ± 0.022 | 0.941 ± 0.12 | 1.03 ± 0.046 | 0.928 ± 0.14 | 1.04 ± 0.089 |

Some values from above:
Entry of PRKCQ (UniProt Q04759) under NP40-soluble protein abundance (concentration: 4mM): 1.02 ± 0.059
Entry of UniProt Q13905 and related entries under NP40-soluble protein abundance (concentration: 6mM): 0.967 ± 0.062
